From US20260265321A1, “PEPTIDE AND POLYPEPTIDE INHIBITING THE NF-KB SIGNALING PATHWAY” (Centre National de la Recherche Scientifique, priority 2023, published 2026)
These are yes or no findings as the source states them, for the method shown. Some binding calls cover weakened binding; strength is not graded here. Tags and fused reporters may be left off the sequences shown.

How the values were obtained:
[1] = molecular target: T1, 6×His-IKKβ(1-669) EE (human) (UniProt O14920); test: MBP pulldown on amylose resin with purified 6×His-IKKβ(1-669) EE, anti-His blot band quantified, % of WT, mean ± SD of three experiments
T1 sequence (looked up): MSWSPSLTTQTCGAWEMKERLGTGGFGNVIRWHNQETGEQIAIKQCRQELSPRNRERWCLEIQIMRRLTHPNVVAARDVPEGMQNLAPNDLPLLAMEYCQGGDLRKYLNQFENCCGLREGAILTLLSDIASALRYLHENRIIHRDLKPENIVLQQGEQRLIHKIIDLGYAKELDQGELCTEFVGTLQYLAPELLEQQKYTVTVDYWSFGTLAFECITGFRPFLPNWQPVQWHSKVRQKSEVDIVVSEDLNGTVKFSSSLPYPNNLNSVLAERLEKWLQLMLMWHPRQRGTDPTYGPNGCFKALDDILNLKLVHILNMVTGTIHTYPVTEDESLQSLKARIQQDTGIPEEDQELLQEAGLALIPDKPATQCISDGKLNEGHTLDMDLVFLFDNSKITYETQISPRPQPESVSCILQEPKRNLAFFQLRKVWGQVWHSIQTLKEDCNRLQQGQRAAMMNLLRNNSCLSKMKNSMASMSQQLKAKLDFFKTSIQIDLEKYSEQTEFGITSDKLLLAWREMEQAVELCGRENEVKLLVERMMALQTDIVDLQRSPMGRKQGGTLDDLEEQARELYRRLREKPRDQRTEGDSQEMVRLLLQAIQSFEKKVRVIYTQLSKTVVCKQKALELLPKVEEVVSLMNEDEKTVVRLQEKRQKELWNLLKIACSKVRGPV

[2] = molecular target: T1, 6×His-IKKβ(1-669) EE (human); test: MBP pulldown, purified proteins
[3] = molecular target: T2, 6×His-IKKα(10-667) EE (human) (UniProt O15111); test: MBP pulldown on amylose resin with purified 6×His-IKKα(10-667) EE, anti-His blot band quantified, % of WT, mean ± SD of three experiments
T2 sequence (looked up): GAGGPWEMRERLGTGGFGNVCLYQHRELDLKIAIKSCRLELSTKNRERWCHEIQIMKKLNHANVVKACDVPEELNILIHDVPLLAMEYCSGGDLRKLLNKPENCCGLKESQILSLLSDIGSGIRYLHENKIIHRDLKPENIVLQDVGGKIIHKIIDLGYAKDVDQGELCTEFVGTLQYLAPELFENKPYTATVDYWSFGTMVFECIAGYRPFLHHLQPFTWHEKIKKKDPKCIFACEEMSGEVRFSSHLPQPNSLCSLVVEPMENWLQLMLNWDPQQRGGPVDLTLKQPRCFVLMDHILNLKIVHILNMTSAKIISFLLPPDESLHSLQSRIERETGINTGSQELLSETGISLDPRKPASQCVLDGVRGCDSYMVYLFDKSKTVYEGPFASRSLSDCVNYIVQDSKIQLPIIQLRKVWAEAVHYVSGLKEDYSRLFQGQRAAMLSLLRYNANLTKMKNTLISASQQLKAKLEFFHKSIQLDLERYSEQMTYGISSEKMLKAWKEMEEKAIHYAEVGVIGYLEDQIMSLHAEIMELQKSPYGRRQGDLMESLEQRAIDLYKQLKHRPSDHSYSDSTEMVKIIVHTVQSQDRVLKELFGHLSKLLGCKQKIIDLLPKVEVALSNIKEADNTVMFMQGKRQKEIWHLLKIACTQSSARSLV

[4] = molecular target: T2, 6×His-IKKα(10-667) EE (human); test: MBP pulldown, anti-His Western blot (FIG. 13A left panel, FIG. 13B)
[5] = molecular target: T2, 6×His-IKKα(10-667) EE (human); test: MBP pulldown on amylose resin, eluate on one stained SDS-PAGE gel that shows His-IKKα (10-667) and the MBP-peptides
[6] = molecular target: T1, 6×His-IKKβ(1-669) EE (human); test: MBP pulldown, anti-His Western blot (FIG. 13A, right panel)
[7] = molecular target: T2, 6×His-IKKα(10-667) EE (human); test: MBP pulldown on amylose resin with purified 6×His-IKKα(10-667) EE, anti-His Western blot; MBP fusions by Coomassie
[8] = molecular target: T1, 6×His-IKKβ(1-669) EE (human); test: MBP pulldown on amylose resin with purified 6×His-IKKβ(1-669) EE, anti-His Western blot; MBP fusions by Coomassie
[9] = molecular target: T3, IKKα/β heterodimer of Strep-IKKα(10-667) EE and 6×His-IKKβ(1-669) EE (human) (UniProt O15111+O14920); test: MBP pulldown
T3 sequence (looked up) 1: T2 sequence (looked up)
T3 sequence (looked up) 2: T1 sequence (looked up)

Measured: binding

DELPYDDCVFGGQRLTL (peptide, not shown: large carriers) [MBP-IκBα 301-317]
binds: [1] | [2] | [3] | [4] | [5]

DSGDEGDEYDDIVVHSSRSQT (peptide, not shown: large carriers) [MBP-IκBβ pep]
binds: [6] | [4] | [7] | [8]

CLSSANSLYDDIECFLMELEQ (peptide, not shown: large carriers) [MBP-IRF7 pep]
binds: [4] | [7]

LPYDDCVFGGQRLTL (peptide, not shown: large carriers) [MBP-IκBα 303-317]
binds: [4] | [5]

B1: synthetic IκBα pep wt (residues 297-317 of IκBα) (peptide)
peptide: EFTEDELPYDDCVFGGQRLTL
notes: HPLC purified synthetic peptide; also called IkBα pep wt; P1
not listed: [1] | [2] | [3]
binds: all other assays above

PGLDGIIEYDDFKLNSSIVEP (peptide, not shown: large carriers) [MBP-p100 pep]
binds: [4] | [7]

DELPYDDCVF (peptide, not shown: large carriers) [MBP-IκBα 301-310]
binds: [4] | [5]

YDDCVFGGQRLTL (peptide, not shown: large carriers) [MBP-IκBα 305-317]
binds: [4] | [5]
